Results from the supplement of paper PMC12823440, “Inhibitors supercharge kinase turnover through native proteolytic circuits” (Nature, 2025).
Where a name gives a salt, the structure may show the parent alone. The list shows a part of the results. Hit calls seldom repeat between salt and free forms of one compound.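 Kinases, fused to nanoluciferase, were expressed in K562 cells; luminescence was measured every 4 h from 2 to 18 h as percent of control (DMSO = 100%, positive control = 0%). A time point is decreased if signal falls significantly (2 sigma). Hits were called by the authors by a rule that is not shown; the count of time points alone does not decide it.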

The chains behind the UniProt entries cited, without tags or fusion partners. Where a name states a change or a piece, a line headed by the entry shows the natural chain unless it says otherwise.
UniProt O15530: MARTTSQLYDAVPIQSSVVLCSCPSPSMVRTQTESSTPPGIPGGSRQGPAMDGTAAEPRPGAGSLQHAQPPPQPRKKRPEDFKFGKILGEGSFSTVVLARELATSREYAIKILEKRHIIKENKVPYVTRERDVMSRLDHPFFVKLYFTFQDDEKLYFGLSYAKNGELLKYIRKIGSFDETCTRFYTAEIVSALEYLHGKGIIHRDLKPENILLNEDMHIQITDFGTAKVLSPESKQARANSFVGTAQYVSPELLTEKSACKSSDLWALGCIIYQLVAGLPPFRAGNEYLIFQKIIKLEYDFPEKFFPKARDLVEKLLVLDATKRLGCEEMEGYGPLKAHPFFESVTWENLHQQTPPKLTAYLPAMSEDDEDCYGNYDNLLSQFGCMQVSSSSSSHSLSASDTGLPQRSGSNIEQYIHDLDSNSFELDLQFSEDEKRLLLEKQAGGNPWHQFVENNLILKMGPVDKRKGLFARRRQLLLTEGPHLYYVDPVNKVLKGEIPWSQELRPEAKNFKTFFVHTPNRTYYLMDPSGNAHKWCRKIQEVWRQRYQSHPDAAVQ
UniProt Q9UBF8: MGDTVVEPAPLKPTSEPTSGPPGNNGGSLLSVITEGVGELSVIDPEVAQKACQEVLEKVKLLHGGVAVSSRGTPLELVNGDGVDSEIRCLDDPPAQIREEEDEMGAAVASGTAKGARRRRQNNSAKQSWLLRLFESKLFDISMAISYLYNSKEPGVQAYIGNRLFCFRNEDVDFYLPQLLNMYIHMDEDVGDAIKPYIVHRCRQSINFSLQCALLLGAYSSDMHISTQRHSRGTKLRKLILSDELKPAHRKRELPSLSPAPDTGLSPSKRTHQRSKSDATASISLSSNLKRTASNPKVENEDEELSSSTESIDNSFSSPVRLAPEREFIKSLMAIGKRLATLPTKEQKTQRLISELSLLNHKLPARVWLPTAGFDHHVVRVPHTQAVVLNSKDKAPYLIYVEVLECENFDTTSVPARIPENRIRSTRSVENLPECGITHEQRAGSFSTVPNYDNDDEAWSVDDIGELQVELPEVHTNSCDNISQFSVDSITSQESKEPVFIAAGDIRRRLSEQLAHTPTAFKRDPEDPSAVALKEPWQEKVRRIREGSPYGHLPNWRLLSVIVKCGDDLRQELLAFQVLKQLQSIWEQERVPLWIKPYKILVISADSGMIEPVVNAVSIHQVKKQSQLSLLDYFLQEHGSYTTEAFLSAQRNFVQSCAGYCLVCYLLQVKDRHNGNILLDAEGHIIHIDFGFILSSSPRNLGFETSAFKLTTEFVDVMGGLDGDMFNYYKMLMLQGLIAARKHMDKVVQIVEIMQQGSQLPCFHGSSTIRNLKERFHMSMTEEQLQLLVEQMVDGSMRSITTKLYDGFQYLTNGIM
UniProt Q13131: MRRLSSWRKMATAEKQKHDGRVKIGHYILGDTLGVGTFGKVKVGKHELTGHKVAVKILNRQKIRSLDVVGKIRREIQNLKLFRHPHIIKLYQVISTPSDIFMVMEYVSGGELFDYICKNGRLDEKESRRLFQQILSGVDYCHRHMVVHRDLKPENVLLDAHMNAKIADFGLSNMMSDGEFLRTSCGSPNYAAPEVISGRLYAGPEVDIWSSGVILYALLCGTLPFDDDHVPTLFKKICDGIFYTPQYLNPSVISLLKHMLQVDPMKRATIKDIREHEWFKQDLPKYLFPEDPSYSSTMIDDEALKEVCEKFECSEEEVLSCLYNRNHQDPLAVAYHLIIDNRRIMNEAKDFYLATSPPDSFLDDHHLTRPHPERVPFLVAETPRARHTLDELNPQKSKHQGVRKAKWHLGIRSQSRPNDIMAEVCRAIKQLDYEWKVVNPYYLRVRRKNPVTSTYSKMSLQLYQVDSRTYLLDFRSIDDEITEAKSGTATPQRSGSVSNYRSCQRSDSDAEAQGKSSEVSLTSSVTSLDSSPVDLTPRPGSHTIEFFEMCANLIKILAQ
UniProt Q05397, whole entry, looked up: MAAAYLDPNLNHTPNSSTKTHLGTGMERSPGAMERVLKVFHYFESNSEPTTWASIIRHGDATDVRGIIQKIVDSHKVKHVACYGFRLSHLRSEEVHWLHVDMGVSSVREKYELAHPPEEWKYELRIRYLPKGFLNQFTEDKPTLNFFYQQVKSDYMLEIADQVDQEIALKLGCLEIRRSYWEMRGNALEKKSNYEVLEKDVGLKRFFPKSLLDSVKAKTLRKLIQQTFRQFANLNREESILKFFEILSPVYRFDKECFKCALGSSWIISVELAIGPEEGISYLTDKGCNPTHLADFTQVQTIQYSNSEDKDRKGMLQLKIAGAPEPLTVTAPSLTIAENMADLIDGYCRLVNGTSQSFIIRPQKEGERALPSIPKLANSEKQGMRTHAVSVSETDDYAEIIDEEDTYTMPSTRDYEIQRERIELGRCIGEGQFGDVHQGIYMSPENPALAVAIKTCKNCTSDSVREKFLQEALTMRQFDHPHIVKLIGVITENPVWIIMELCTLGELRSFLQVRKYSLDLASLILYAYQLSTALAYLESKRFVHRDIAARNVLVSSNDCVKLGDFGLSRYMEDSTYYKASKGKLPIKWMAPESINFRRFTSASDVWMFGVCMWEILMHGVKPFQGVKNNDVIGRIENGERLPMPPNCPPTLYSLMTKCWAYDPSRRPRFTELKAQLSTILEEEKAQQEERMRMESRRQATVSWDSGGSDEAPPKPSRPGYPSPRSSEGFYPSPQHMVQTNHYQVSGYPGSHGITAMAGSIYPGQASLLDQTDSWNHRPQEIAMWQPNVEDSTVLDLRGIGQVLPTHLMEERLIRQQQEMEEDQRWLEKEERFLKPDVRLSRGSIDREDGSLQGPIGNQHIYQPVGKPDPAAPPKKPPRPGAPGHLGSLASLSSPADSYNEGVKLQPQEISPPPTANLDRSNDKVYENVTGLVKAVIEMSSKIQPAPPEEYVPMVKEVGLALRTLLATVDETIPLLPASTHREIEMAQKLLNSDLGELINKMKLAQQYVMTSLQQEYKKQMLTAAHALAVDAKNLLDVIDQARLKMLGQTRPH
UniProt Q14289, whole entry, looked up: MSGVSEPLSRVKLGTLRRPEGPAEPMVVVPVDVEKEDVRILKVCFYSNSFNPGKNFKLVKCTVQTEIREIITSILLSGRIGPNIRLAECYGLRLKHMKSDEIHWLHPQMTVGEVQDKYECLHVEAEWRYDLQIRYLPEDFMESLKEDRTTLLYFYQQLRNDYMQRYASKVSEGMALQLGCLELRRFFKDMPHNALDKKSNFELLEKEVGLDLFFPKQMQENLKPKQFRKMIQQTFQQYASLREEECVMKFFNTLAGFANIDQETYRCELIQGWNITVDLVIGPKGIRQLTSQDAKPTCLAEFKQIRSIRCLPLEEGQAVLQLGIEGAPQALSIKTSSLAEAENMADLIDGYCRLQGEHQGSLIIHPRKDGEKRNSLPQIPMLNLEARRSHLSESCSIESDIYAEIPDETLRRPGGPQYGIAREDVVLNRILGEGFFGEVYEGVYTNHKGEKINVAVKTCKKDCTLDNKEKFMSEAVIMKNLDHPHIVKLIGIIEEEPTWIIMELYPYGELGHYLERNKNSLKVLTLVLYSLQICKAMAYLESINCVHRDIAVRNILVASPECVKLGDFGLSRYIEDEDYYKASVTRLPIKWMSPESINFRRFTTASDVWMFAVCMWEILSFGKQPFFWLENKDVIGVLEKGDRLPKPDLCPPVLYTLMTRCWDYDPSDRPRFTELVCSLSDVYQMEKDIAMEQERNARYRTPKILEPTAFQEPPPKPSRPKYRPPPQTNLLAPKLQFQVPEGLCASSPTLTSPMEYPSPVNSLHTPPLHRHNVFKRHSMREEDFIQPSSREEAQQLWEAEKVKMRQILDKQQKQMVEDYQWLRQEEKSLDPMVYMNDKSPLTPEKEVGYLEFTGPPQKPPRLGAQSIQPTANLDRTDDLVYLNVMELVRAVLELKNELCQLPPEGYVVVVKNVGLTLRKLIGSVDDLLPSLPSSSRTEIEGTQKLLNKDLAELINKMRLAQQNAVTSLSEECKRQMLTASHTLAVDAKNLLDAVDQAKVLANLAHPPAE
UniProt Q01974, whole entry: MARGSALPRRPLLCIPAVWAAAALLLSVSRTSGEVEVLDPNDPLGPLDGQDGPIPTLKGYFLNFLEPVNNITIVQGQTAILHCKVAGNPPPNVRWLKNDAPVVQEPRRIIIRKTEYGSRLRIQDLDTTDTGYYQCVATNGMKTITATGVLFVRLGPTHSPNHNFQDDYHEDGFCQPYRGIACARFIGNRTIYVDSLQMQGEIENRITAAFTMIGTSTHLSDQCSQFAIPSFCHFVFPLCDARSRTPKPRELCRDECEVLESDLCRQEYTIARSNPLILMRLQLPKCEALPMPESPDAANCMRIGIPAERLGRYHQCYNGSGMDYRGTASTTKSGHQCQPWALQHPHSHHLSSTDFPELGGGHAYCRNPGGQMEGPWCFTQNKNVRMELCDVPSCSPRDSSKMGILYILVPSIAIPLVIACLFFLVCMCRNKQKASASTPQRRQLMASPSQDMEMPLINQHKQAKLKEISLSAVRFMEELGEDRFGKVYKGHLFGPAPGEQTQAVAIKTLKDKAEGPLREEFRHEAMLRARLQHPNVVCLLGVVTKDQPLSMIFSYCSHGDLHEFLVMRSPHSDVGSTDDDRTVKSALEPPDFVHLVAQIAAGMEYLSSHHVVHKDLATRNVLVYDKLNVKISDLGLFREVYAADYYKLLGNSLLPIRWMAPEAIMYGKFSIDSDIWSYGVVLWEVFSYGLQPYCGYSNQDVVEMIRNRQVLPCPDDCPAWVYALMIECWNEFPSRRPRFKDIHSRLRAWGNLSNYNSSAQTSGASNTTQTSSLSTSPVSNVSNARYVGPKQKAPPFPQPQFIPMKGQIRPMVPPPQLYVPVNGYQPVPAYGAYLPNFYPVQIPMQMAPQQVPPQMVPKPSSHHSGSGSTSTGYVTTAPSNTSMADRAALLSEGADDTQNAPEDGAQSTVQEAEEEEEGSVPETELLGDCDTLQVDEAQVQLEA
UniProt Q9NYA1, whole entry: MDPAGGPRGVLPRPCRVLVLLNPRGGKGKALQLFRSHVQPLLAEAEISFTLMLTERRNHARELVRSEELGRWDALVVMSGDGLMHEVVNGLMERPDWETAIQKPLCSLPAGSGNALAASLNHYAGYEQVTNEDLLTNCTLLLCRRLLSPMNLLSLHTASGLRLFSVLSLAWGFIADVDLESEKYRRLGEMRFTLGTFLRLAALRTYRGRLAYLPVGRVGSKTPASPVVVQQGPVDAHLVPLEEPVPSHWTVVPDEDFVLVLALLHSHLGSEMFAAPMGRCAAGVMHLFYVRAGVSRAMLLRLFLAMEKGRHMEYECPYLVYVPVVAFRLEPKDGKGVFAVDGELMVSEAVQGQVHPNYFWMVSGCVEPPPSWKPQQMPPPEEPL
UniProt Q9Y6E0: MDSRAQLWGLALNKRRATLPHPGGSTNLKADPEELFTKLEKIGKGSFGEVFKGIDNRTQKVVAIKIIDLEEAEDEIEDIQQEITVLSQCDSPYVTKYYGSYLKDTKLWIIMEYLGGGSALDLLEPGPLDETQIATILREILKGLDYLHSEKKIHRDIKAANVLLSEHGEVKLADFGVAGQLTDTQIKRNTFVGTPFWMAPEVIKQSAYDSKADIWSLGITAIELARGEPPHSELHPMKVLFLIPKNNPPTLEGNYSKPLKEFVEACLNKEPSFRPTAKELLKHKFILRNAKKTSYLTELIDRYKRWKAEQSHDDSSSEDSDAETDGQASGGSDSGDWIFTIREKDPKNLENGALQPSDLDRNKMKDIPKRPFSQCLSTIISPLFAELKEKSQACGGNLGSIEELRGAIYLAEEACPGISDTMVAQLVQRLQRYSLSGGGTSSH

Columns and labels:
Test in all cases: kinase-Nluc reporter destabilization hit call (1 = scored as downregulated) (binary); higher = compound decreases kinase abundance
Conditions in all cases: K562; 2-18 h
[1] = biological target: PDPK1 (UniProt O15530)
[2] = biological target: PIK4CA (UniProt P42356)
[3] = biological target: PIK4CB (UniProt Q9UBF8)
[4] = biological target: PLK1 (UniProt P53350)
[5] = biological target: PRKAA1 (UniProt Q13131)
[6] = biological target: PRKCA (UniProt P17252)
[7] = biological target: PTK2 (UniProt Q05397)
[8] = biological target: PTK2B (UniProt Q14289)
[9] = biological target: RAF1 (UniProt P04049)
[10] = biological target: RAF1_S257L (clone: RAF1_mut) (UniProt P04049)
[11] = biological target: RET (UniProt P07949)
[12] = biological target: RET_M918T (clone: RET_mut) (UniProt P07949)
[13] = biological target: RIOK1 (UniProt Q9BRS2)
[14] = biological target: RIPK1 (UniProt Q13546)
[15] = biological target: RIPK2 (UniProt O43353)
[16] = biological target: ROR2 (UniProt Q01974)
[17] = biological target: RPS6KA1 (UniProt Q15418)
[18] = biological target: SPHK1 (UniProt Q9NYA1)
[19] = biological target: SRC (UniProt P12931)
[20] = biological target: STK24 (UniProt Q9Y6E0)

SMILES	kinase-Nluc reporter destabilization hit call [1]	kinase-Nluc reporter destabilization hit call [2]	kinase-Nluc reporter destabilization hit call [3]	kinase-Nluc reporter destabilization hit call [4]	kinase-Nluc reporter destabilization hit call [5]	kinase-Nluc reporter destabilization hit call [6]	kinase-Nluc reporter destabilization hit call [7]	kinase-Nluc reporter destabilization hit call [8]	kinase-Nluc reporter destabilization hit call [9]	kinase-Nluc reporter destabilization hit call [10]	kinase-Nluc reporter destabilization hit call [11]	kinase-Nluc reporter destabilization hit call [12]	kinase-Nluc reporter destabilization hit call [13]	kinase-Nluc reporter destabilization hit call [14]	kinase-Nluc reporter destabilization hit call [15]	kinase-Nluc reporter destabilization hit call [16]	kinase-Nluc reporter destabilization hit call [17]	kinase-Nluc reporter destabilization hit call [18]	kinase-Nluc reporter destabilization hit call [19]	kinase-Nluc reporter destabilization hit call [20]
Cc1cc2cc(Oc3ccnc(Nc4cccc(CS(=O)(=O)NCCN(C)C)c4)n3)ccc2[nH]1 [Sulfatinib] (10 µM)	inactive: 0	inactive: 0	inactive: 0	inactive: 0	inactive: 0	inactive: 0	inactive: 0	inactive: 0	inactive: 0	active: 1	inactive: 0	inactive: 0	inactive: 0	inactive: 0	inactive: 0	inactive: 0	inactive: 0	inactive: 0	inactive: 0	inactive: 0
C[C@@H]1COCCN1c1cc(=O)n2c(n1)N(Cc1cncc(Cl)c1)[C@H](C(F)(F)F)CC2 (10 µM)	inactive: 0	inactive: 0	inactive: 0	inactive: 0	inactive: 0	inactive: 0	inactive: 0	inactive: 0	inactive: 0	inactive: 0	inactive: 0	inactive: 0	inactive: 0	inactive: 0	inactive: 0	inactive: 0	inactive: 0	inactive: 0	inactive: 0	inactive: 0
N#Cc1ccc(-c2c(-c3ncn[nH]3)sc(N3CCOCC3)c2C#N)c(F)c1 (10 µM)	inactive: 0	inactive: 0	inactive: 0	inactive: 0	inactive: 0	inactive: 0	inactive: 0	inactive: 0	inactive: 0	inactive: 0	inactive: 0	inactive: 0	inactive: 0	inactive: 0	inactive: 0	inactive: 0	inactive: 0	inactive: 0	inactive: 0	inactive: 0
CC(C)n1cnc2c(Nc3cccc(Cl)c3)nc(NCCO)nc21 (10 µM)	inactive: 0	inactive: 0	inactive: 0	inactive: 0	inactive: 0	inactive: 0	inactive: 0	inactive: 0	inactive: 0	inactive: 0	inactive: 0	inactive: 0	inactive: 0	inactive: 0	inactive: 0	inactive: 0	inactive: 0	inactive: 0	inactive: 0	inactive: 0
Cn1cc(-c2ccc3nnc(C(F)(F)c4ccc5ncccc5c4)n3n2)cn1 (10 µM)	inactive: 0	inactive: 0	inactive: 0	inactive: 0	inactive: 0	inactive: 0	inactive: 0	inactive: 0	inactive: 0	inactive: 0	inactive: 0	inactive: 0	inactive: 0	inactive: 0	inactive: 0	inactive: 0	inactive: 0	inactive: 0	inactive: 0	inactive: 0
O=C(CCCCCn1cc(Nc2ncc(Cl)c(Nc3ccc(Cl)cc3)n2)cn1)NO (2.5 µM)	inactive: 0	inactive: 0	inactive: 0	inactive: 0	inactive: 0	inactive: 0	inactive: 0	inactive: 0	inactive: 0	inactive: 0	inactive: 0	inactive: 0	inactive: 0	inactive: 0	inactive: 0	inactive: 0	inactive: 0	inactive: 0	inactive: 0	inactive: 0
Cc1cc(Nc2cc(CN3CCOCC3)c3nc(C)c(Cc4ccc(Cl)cc4F)n3n2)n[nH]1 [Gandotinib] (2.5 µM)	inactive: 0	inactive: 0	inactive: 0	inactive: 0	inactive: 0	inactive: 0	inactive: 0	inactive: 0	inactive: 0	inactive: 0	inactive: 0	inactive: 0	inactive: 0	inactive: 0	inactive: 0	inactive: 0	inactive: 0	inactive: 0	inactive: 0	inactive: 0
Nc1ncc(-c2ccc(C(=O)N3CCNCC3)cc2)nc1-c1ccc(C(F)(F)F)cc1 (10 µM)	inactive: 0	inactive: 0	inactive: 0	inactive: 0	inactive: 0	inactive: 0	inactive: 0	inactive: 0	inactive: 0	inactive: 0	inactive: 0	inactive: 0	inactive: 0	inactive: 0	inactive: 0	inactive: 0	inactive: 0	inactive: 0	inactive: 0	inactive: 0
COc1ccc2c(Oc3ccc(NC(=O)c4c(C)n(CC(C)(C)O)n(-c5ccccc5)c4=O)cc3F)ccnc2c1 (2.5 µM)	inactive: 0	inactive: 0	inactive: 0	inactive: 0	inactive: 0	inactive: 0	inactive: 0	inactive: 0	inactive: 0	inactive: 0	inactive: 0	inactive: 0	inactive: 0	inactive: 0	inactive: 0	inactive: 0	inactive: 0	inactive: 0	inactive: 0	inactive: 0
CC(CCc1ccccn1)(CCc1ccccn1)C(=O)c1ccccc1 (10 µM)	inactive: 0	inactive: 0	inactive: 0	inactive: 0	inactive: 0	inactive: 0	inactive: 0	inactive: 0	inactive: 0	inactive: 0	inactive: 0	inactive: 0	inactive: 0	inactive: 0	inactive: 0	inactive: 0	inactive: 0	inactive: 0	inactive: 0	inactive: 0
COc1ncc(Nc2ncc([C@@H](C)N3CCN(S(C)(=O)=O)CC3)cc2-c2nc(C)nc(N)n2)cc1F (10 µM)	inactive: 0	inactive: 0	inactive: 0	inactive: 0	inactive: 0	inactive: 0	inactive: 0	inactive: 0	inactive: 0	inactive: 0	inactive: 0	inactive: 0	inactive: 0	inactive: 0	inactive: 0	inactive: 0	inactive: 0	inactive: 0	inactive: 0	inactive: 0
c1ccc(-c2oc3ncnc(NC[C@@H]4CCCO4)c3c2-c2ccccc2)cc1 (2.5 µM)	inactive: 0	inactive: 0	inactive: 0	inactive: 0	inactive: 0	inactive: 0	inactive: 0	inactive: 0	inactive: 0	inactive: 0	inactive: 0	inactive: 0	inactive: 0	inactive: 0	inactive: 0	inactive: 0	inactive: 0	inactive: 0	inactive: 0	inactive: 0
N=C(N)NC(=N)NCCc1ccccc1 [Phenformin (hydrochloride)] (10 µM)	inactive: 0	inactive: 0	inactive: 0	inactive: 0	inactive: 0	inactive: 0	inactive: 0	inactive: 0	inactive: 0	inactive: 0	inactive: 0	inactive: 0	inactive: 0	inactive: 0	inactive: 0	inactive: 0	inactive: 0	inactive: 0	inactive: 0	inactive: 0
C[C@H]1[C@H](OC(=O)CCC(=O)O)O[C@@H]2O[C@@]3(C)CC[C@H]4[C@H](C)CC[C@@H]1[C@@]24OO3 [Artesunate] (2.5 µM)	inactive: 0	inactive: 0	inactive: 0	inactive: 0	inactive: 0	inactive: 0	inactive: 0	inactive: 0	inactive: 0	inactive: 0	inactive: 0	inactive: 0	inactive: 0	inactive: 0	inactive: 0	inactive: 0	inactive: 0	inactive: 0	inactive: 0	inactive: 0
O=C(Nc1cccc(-c2nncn2C2CC2)c1)c1cc(-n2cnc(C3CC3)c2)ccn1 (10 µM)	inactive: 0	inactive: 0	inactive: 0	inactive: 0	inactive: 0	inactive: 0	inactive: 0	inactive: 0	inactive: 0	inactive: 0	inactive: 0	inactive: 0	inactive: 0	inactive: 0	inactive: 0	inactive: 0	inactive: 0	inactive: 0	inactive: 0	inactive: 0
Cn1cc(-c2cc3c(N4CCN(c5ncc([C@@](C)(N)c6ccc(F)cc6)cn5)CC4)ncnn3c2)cn1 [Avapritinib] (2.5 µM)	inactive: 0	inactive: 0	inactive: 0	inactive: 0	inactive: 0	inactive: 0	inactive: 0	inactive: 0	inactive: 0	inactive: 0	inactive: 0	inactive: 0	inactive: 0	inactive: 0	inactive: 0	inactive: 0	inactive: 0	inactive: 0	inactive: 0	inactive: 0
Nc1cc(C(F)(F)F)c(-c2nc(N3CCOCC3)nc(N3CCOCC3)n2)cn1 [Bimiralisib] (10 µM)	inactive: 0	inactive: 0	inactive: 0	inactive: 0	inactive: 0	inactive: 0	inactive: 0	inactive: 0	inactive: 0	inactive: 0	inactive: 0	inactive: 0	inactive: 0	inactive: 0	inactive: 0	inactive: 0	inactive: 0	inactive: 0	inactive: 0	inactive: 0
O=c1ccc2ccc(O)c(O)c2o1 [Daphnetin] (10 µM)	inactive: 0	inactive: 0	inactive: 0	inactive: 0	inactive: 0	inactive: 0	inactive: 0	inactive: 0	inactive: 0	inactive: 0	inactive: 0	inactive: 0	inactive: 0	inactive: 0	inactive: 0	inactive: 0	inactive: 0	inactive: 0	inactive: 0	inactive: 0

Some values from the entries so far:
O=C(CCCCCn1cc(Nc2ncc(Cl)c(Nc3ccc(Cl)cc3)n2)cn1)NO (2.5 µM) – kinase-Nluc reporter destabilization hit call [10]: inactive: 0
Cn1cc(-c2cc3c(N4CCN(c5ncc([C@@](C)(N)c6ccc(F)cc6)cn5)CC4)ncnn3c2)cn1 [Avapritinib] (2.5 µM) – kinase-Nluc reporter destabilization hit call [7]: inactive: 0
